The exact form of at least one protein or probe is not confirmed. At least one result comes from cells or an extract, where the contact may be indirect. Negatives hold for the conditions tested.
System: MEF2-HA + TBP (TATA binding protein)
Assay: EMSA
Conditions: poly(dI-dC), 10 mM Tris pH 7.6, 75 mM KCl, 1 mM DTT, 2.5 mM MgCl2, 5% glycerol, 1 ug poly(dI-dC), 2 fmol dsDNA, 1-2 ug nuclear extract in 20 ul, 10 min, room temperature, protein in an extract, protein details: HA

Sequence | binding result (complex 1, eliminated by preincubation with anti-HA or anti-TBP) | binding result (both complexes eliminated)
TTGTCTGGGACTGAGCTATAAAAGCCTCACCATCTCAACG (double strand) [mtkpro-40mer (Mtk core promoter, MEF2-TATA)] | binds | –
TTGTCTGGGACTGAGGTATAAAATTCTCACCATCTCAACG (double strand) [mtkpro-40mer-deltaM] | – | no binding

— paper PMC3807682
